From PMC11476781 come the findings set out here.

For the experiment, the target named is G104C-IBA57 (human) (UniProt Q5T440). The experiment is described as follows: SEC-MALS; Superdex 200 Increase 10/300 GL coupled to MALS (DAWN HELEOS); samples 20–50 μM; deoxygenated 50 mM sodium phosphate pH 7.0, 200 mM NaCl, 5 mM DTT; 0.7 mL/min; both purified.

Results are given in words; binding and its absence hold for the method and conditions named.

B1: G104C-IBA57 (protein, UniProt Q5T440 44-352)
chain: AGAAWACFRLDGRTLLRVRGPDAAPFLLGLLTNELPLPSPAAAGAPPAARAGYAHFLNVQCRTLYDVILYGLQEHSEVSGFLLECDSSVQGALQKHLALYRIRRKVTVEPHPELRVWAVLPSSPEACGAASLQERAGAAAILIRDPRTARMGWRLLTQDEGPALVPGGRLGDLWDYHQHRYLQGVPEGVRDLPPGVALPLESNLAFMNGVSFTKGCYIGQELTARTHHMGVIRKRLFPVRFLDPLPTSGITPGATVLTASGQTVGKFRAGQGNVGLALLWSEKIKGPLHIRASEGAQVALAASVPDWWP
As for B1, the binding result was “no binding (tested: 20–50 μM)”.
